PubChem BioAssay AID1487 (National Center for Advancing Translational Sciences (NCATS), 2009)
The other results are listed elsewhere or left out. Shown are side measurements of this screen, not its main read-out; they come without a call. Compounds called inactive in the main read-out are mostly missing here. Potencies come from curve fits of mixed quality, noted in brackets.

Assay: qHTS Assay for Modulators of Lamin A Splicing
Details: HeLa LMNA splicing GFP/RFP minigene ratio, 48 h
Procedure, shortened: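 S3 HeLa stable clones carrying a lamin A-EGFP splicing minigene plus DsRed2 were seeded at 600 cells/well in Opti-MEM with 2% FBS, pin-dosed and incubated 48 h at 37°C. Acumen cytometry (488 nm) gave the GFP/RFP total-intensity ratio.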

[1] = measured here: GFP splicing reporter channel
[2] = measured here: RFP viability control channel

In the case of COCC(C)OC(=O)/C(C#N)=C\c1coc2ccc(C)cc2c1=O (configuration not stated), the AC50 [1] was 1.12 µM [rising, partial curve] and the AC50 [2] was 15.8 µM [rising, partial curve, poor fit].
In the case of Cc1ccc(C(c2nnnn2C2CCCC2)N2CCc3ccccc32)cc1 (configuration not stated), the AC50 [1] was 14.1 µM [rising, single point] and the AC50 [2] was 15.8 µM [rising, partial curve].
With O=C(CN1CCOCC1)Nc1ccccc1Sc1ccc(Cl)cc1 the AC50 [2] was 35.5 µM [rising, single point].
For Cc1nc(SCC(=O)NCC(F)(F)F)c2c(-c3cccs3)csc2n1, the AC50 [2] was 11.2 µM [rising, partial curve, poor fit].
In the case of O=C(NC(=S)Nc1ccccc1N1CCCC1)c1ccc([N+](=O)[O-])cc1, the AC50 [2] was 22.4 µM [rising, single point].
With O=C(CN1CCN(S(=O)(=O)c2ccccc2)CC1)Nc1ccc2c(c1)CCC2 the AC50 [1] was 0.00708 µM [rising, full curve, poor fit] and the AC50 [2] was 0.00447 µM [rising, full curve, poor fit].
In the case of CCOc1cc(N2CCOCC2)c(OCC)cc1NC(=O)COc1ccccc1[N+](=O)[O-], the AC50 [2] was 2.82 µM [falling, full curve, poor fit].
With Cc1ccc(NC2=NCC(Cc3ccc(Br)cc3)S2)cc1 (configuration not stated) the AC50 [1] was 35.5 µM [falling, single point] and the AC50 [2] was 35.5 µM [falling, single point].
For COc1ccccc1N1CCN(CCCNC(=O)c2cnn(-c3ccccc3Cl)c2C2CCN(C(=O)OC(C)(C)C)CC2)CC1, the AC50 [1] was 2.82 µM [falling, full curve, poor fit].
In the case of COc1ncc2nc(CCc3ccccc3)c(=O)n(CCc3ccccc3)c2n1, the AC50 [2] was 14.1 µM [falling, single point].
In the case of COC(=O)c1ccccc1NC(=O)c1ccc(COc2ccccc2)o1, the AC50 [1] was 11.2 µM [rising, single point] and the AC50 [2] was 20 µM [rising, single point].
For CC(C)(C)NC(=O)CON=C1c2ccccc2-c2ccccc21, the AC50 [1] was 15.8 µM [rising, partial curve] and the AC50 [2] was 12.6 µM [rising, partial curve].
For CCCN(CCC)C1=CC(=[N+]2CCCC2)CC(C)(C)C1, the AC50 [1] was 1.58 µM [rising, partial curve] and the AC50 [2] was 3.16 µM [rising, full curve].
For c1ccc(-n2cnc3cc(NCc4cccs4)ccc32)cc1, the AC50 [1] was 35.5 µM [falling, single point] and the AC50 [2] was 35.5 µM [falling, single point].
In the case of CCn1c(/C=C\c2ccccc2C)nc2ccccc2c1=O, the AC50 [1] was 0.1 µM [falling, full curve, poor fit].
With O=C(N/N=C/C1CC=CCC1)c1cc2ccccc2cc1O (configuration not stated) the AC50 [2] was 2 µM [rising, partial curve].
With O=C(Nc1nc2c(s1)CCc1ccccc1-2)c1ccco1 the AC50 [2] was 14.1 µM [rising, partial curve].
In the case of CN(C)c1cc[n+](CC(=O)N2CCCc3ccccc32)cc1, the AC50 [1] was 5.62 µM [falling, partial curve, poor fit] and the AC50 [2] was 12.6 µM [falling, partial curve, poor fit].
With COc1cc(Nc2nc(SCc3ccccc3F)nc3ccccc23)cc(OC)c1 the AC50 [2] was 0.355 µM [rising, partial curve].
For Cc1cc(C)c2nc3nc(C)cc(C)c3c(N)c2c1, the AC50 [2] was 22.4 µM [rising, single point].
In the case of COc1ccc([N+](=O)[O-])cc1NC(C)C, the AC50 [2] was 0.00447 µM [falling, full curve, poor fit].
For COc1ccccc1CNc1nc(-c2ccccc2CN(C)C)nc2ccccc12, the AC50 [1] was 12.6 µM [rising, single point].
In the case of COc1nc(NC23CC4CC(CC(C4)C2)C3)nc(OC)n1, the AC50 [1] was 12.6 µM [rising, partial curve, poor fit] and the AC50 [2] was 22.4 µM [rising, partial curve, poor fit].
With CCOC(=O)CSc1cc(C)c(C#N)c2nc3ccccc3n12 the AC50 [1] was 35.5 µM [rising, single point] and the AC50 [2] was 31.6 µM [rising, partial curve].
With COc1ccc(C(O)c2nc3ccccc3n2C)cc1OC (configuration not stated) the AC50 [2] was 2.82 µM [rising, full curve].
For Cc1cccc(NC(c2cccc(F)c2)c2ccc3ccc(C)nc3c2O)n1 (configuration not stated), the AC50 [2] was 2.51 µM [rising, partial curve, poor fit].
With NCCNCCNCCN the AC50 [1] was 12.6 µM [falling, partial curve] and the AC50 [2] was 0.501 µM [falling, single point].
With CCOc1ccc(CC(=O)NNC(=S)NC2CCCCC2)cc1OCC the AC50 [1] was 11.2 µM [rising, single point] and the AC50 [2] was 11.2 µM [rising, single point].
With NC(=O)CSc1nc2ccc(NC(=O)COc3ccccc3)cc2s1 the AC50 [2] was 0.2 µM [falling, full curve, poor fit].
With CN(C)c1cc[n+](CC(=O)Nc2c(Cl)cc(Cl)cc2Cl)cc1 the AC50 [2] was 0.447 µM [rising, full curve].
In the case of O=C(Cn1nnc(-c2ccccc2Cl)n1)N1CCN(S(=O)(=O)c2ccc(Cl)cc2)CC1, the AC50 [2] was 35.5 µM [rising, single point].
With CC(C)=C1C2CCC1C(C(=O)Nc1sc(C)c(-c3ccc(C(C)C)cc3)c1C(N)=O)C2C(=O)O (configuration not stated) the AC50 [2] was 17.8 µM [rising, partial curve, poor fit].
With COc1ccc2cc3cc(C(=O)NCc4cccs4)oc3nc2c1 the AC50 [1] was 15.8 µM [rising, partial curve, poor fit].
In the case of CC1=CC(=O)C(C(C)C)=C/C1=N\OC(=O)c1cccc2nc(C)oc12, the AC50 [2] was 12.6 µM [rising, single point].
With Cc1ccccc1NC(=O)c1sc(NC(=O)COc2ccccc2)c(C#N)c1C the AC50 [2] was 35.5 µM [rising, single point].
In the case of C=CCNc1ncnc2c1[nH]c1ccccc12, the AC50 [2] was 12.6 µM [rising, partial curve].
For COC(=O)c1ccccc1NC(=O)CSc1nnc(-c2ccncc2)o1, the AC50 [2] was 0.0112 µM [rising, full curve, poor fit].
For CC(=O)c1cccc(NC(=O)CSCc2ccc(Br)cc2)c1, the AC50 [2] was 20 µM [rising, single point].
In the case of COc1ccc(Nc2nc(N3CCCC3)c3ccccc3n2)cc1, the AC50 [2] was 12.6 µM [rising, partial curve].
With O=S(=O)(c1cccc(S(=O)(=O)N2CCC(Cc3ccccc3)CC2)c1)N1CCOCC1 the AC50 [2] was 15.8 µM [rising, single point].
In the case of Nc1nc(-c2ccccc2)nn1S(=O)(=O)c1ccccc1, the AC50 [1] was 0.282 µM [rising, full curve, poor fit].
For COc1ccc(COc2cc(-c3cccc(OC)c3)nc3ccc(N)cc23)cc1, the AC50 [2] was 5.62 µM [rising, single point].
With Cc1ccc(/C(=C/CN2CCCC2)c2ccccn2)cc1 the AC50 [1] was 8.91 µM [rising, partial curve, poor fit] and the AC50 [2] was 4.47 µM [rising, partial curve, poor fit].
In the case of CCS(=O)(=O)c1ccc2oc(SCC(=O)NCCC3=CCCCC3)nc2c1, the AC50 [2] was 14.1 µM [rising, single point].
In the case of COc1ccc(N2CCN(C(=O)C(C)(C)Oc3ccc(Cl)cc3)CC2)cc1, the AC50 [2] was 35.5 µM [rising, single point].
In the case of CCc1n[nH]c2c1/C(=N\O)CC(c1ccccc1)C2 (configuration not stated), the AC50 [2] was 11.2 µM [rising, partial curve].
In the case of COc1cc(-c2ccno2)ccc1S(=O)(=O)N1CCN(c2cccc(Cl)c2)CC1, the AC50 [2] was 0.00447 µM [rising, full curve, poor fit].
With Cc1cc(C)n(CC(=O)c2ccccc2)c(=O)c1C#N the AC50 [2] was 0.00316 µM [falling, full curve, poor fit].
In the case of CC(C)OC(=O)c1cc(NC(=O)C2C3CCC(O3)C2C(=O)O)cc(C(=O)OC(C)C)c1 (configuration not stated), the AC50 [1] was 35.5 µM [rising, single point] and the AC50 [2] was 35.5 µM [rising, single point].
In the case of COC(=O)C(C)(C)ONC(=O)Nc1ccc(Br)cc1, the AC50 [2] was 35.5 µM [rising, single point].
For O=C(c1ccc(Br)o1)N(Cc1ccccc1)Cc1ccccc1, the AC50 [2] was 22.4 µM [rising, single point].
With CCn1c(SC)nc2c([nH]c3ccccc32)c1=O the AC50 [1] was 0.00631 µM [falling, full curve, poor fit].
With Cc1ccc(S(=O)(=O)N(C)C)cc1NC(=O)c1cncc(Br)c1 the AC50 [1] was 35.5 µM [rising, single point] and the AC50 [2] was 31.6 µM [rising, single point].
For O=C(CNC(=O)c1ccc2c(c1)OCO2)N/N=C(Br)/C=C/c1ccccc1, the AC50 [2] was 3.98 µM [rising, full curve].
In the case of CCOC(=O)c1c(S(=O)(=O)N2CCC(C(=O)Nc3ccc(C)cn3)CC2)c(C)n(C)c1C, the AC50 [1] was 0.00501 µM [rising, full curve, poor fit].
With Cc1ccc([N+](=O)[O-])cc1NCC(=O)NN the AC50 [2] was 35.5 µM [rising, single point].
For CCc1ccc(C(C)NC(=O)/C(C#N)=C\c2cn[nH]c2-c2ccccc2)cc1 (configuration not stated), the AC50 [1] was 11.2 µM [rising, partial curve] and the AC50 [2] was 25.1 µM [rising, single point].
With CC(C)c1ccc(C2NC(=S)NC3=C2C(=O)CCC3)cc1 (configuration not stated) the AC50 [2] was 5.62 µM [rising, partial curve, poor fit].
In the case of CC(C)Cn1c(SC(C)C(=O)Nc2ccc3c(c2)OCCO3)nc2ccccc2c1=O (configuration not stated), the AC50 [1] was 12.6 µM [rising, single point] and the AC50 [2] was 11.2 µM [rising, single point].
